Data reported in publication PMC4575451.
Results are given in words; binding and its absence hold for the method and conditions named. Binding seen in cells or lysates may run through a third protein. Some binding calls cover weakened binding; strength is not graded here.

By UniProt entry, the sequences of proteins in these tests, tags left out.
UniProt Q5S007: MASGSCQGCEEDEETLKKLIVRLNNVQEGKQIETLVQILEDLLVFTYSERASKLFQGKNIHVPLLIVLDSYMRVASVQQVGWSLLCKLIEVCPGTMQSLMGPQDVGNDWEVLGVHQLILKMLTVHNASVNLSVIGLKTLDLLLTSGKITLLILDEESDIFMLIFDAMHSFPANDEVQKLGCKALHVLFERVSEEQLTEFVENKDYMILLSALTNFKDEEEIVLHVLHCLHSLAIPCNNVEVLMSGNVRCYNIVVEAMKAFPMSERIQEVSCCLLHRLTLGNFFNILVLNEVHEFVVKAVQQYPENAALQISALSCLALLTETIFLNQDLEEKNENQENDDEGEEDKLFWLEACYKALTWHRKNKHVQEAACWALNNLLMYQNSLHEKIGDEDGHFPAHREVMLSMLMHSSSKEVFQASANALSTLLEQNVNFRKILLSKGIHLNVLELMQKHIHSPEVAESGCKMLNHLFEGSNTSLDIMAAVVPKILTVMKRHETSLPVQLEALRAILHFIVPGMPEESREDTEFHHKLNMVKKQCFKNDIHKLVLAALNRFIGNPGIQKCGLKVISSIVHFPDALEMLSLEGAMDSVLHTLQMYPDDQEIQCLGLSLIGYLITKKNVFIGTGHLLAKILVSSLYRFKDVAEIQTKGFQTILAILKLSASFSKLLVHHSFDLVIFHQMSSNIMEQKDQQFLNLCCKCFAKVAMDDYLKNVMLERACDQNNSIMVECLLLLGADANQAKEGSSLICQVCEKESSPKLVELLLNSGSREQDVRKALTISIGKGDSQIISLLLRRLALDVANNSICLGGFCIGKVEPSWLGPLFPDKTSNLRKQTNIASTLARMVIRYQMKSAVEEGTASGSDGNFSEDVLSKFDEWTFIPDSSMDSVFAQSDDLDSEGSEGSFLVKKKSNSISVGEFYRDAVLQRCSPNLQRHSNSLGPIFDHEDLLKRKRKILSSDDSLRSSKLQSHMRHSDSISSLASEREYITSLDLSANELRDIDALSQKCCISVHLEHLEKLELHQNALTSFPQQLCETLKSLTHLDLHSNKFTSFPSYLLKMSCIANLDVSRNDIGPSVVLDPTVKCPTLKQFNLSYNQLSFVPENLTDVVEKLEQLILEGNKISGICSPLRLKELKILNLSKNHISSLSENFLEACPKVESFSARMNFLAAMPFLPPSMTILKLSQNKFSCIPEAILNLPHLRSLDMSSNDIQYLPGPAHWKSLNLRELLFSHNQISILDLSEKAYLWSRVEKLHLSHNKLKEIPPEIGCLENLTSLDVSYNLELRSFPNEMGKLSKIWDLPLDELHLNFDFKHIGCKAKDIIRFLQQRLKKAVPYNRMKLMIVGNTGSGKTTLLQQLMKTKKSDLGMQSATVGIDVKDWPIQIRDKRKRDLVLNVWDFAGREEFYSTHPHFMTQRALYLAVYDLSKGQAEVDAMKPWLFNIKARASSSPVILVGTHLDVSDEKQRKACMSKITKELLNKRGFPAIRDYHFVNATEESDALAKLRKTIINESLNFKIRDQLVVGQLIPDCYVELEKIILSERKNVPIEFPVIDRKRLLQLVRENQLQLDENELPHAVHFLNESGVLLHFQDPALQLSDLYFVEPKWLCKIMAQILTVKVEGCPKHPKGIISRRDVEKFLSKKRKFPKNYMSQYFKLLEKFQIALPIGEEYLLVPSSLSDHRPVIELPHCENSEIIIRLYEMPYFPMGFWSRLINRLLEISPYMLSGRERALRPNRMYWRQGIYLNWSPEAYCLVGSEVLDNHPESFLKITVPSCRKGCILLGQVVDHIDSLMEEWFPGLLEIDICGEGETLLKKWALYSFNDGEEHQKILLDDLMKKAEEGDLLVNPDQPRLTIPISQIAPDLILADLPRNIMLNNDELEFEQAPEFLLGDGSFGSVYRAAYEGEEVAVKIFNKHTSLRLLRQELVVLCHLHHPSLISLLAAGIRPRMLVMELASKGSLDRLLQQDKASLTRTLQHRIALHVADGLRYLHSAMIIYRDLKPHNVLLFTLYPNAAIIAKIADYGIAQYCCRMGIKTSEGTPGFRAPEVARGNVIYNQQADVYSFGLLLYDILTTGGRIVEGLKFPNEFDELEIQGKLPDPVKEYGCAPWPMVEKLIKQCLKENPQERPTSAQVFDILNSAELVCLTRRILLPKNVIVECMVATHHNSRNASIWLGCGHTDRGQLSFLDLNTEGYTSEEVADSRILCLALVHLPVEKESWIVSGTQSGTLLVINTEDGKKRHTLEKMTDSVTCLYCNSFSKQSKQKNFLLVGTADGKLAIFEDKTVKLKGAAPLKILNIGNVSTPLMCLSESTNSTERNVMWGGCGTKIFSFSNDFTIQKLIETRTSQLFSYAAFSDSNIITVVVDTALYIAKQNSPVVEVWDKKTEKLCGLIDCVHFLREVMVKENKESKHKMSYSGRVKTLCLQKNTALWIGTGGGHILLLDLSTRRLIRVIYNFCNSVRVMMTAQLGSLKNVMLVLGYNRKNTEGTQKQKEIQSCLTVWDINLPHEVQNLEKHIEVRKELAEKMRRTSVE

What was measured:
[1] = biological target: p53 (human (endogenous in SH-SY5Y)) (UniProt P04637); test: co-IP; lysates of differentiated SH-SY5Y cells, precleared, immunoprecipitated with anti-p53 or anti-LRRK2 (MJFF2) at 4 °C for 8 h, protein-A agarose for 24 h, Western blot; control IgG IP alongside
[2] = biological target: Leucine-rich repeat kinase 2 (LRRK2) (human (endogenous in SH-SY5Y)) (UniProt Q5S007); test: as above

Substance | binding [1] | binding [2]
Leucine-rich repeat kinase 2 (LRRK2) (from UniProt Q5S007 1-2527) | binds | –
p53 (from UniProt P04637 1-393) | – | binds
